Assay results as given in US20050186568A1, “Kinases and phosphatases” (priority 2001, published 2005).
At least one compound was matched to its structure with a doubt left. Some compounds share one wording; it may come from a single statement.

Tested on: SEQ ID NO:67
Assay: Microarray analysis of SEQ ID NO:67 expression in steroid-treated C3A cells
Format: cell-based, human
Conditions: early confluent C3A cells treated for 1, 3, or 6 hours
Procedure: Total RNA is isolated from tissue samples using the guanidinium thiocyanate method and poly(A)^+ RNA is purified using the oligo-(dT) cellulose method. Each poly(A)^+ RNA sample is reverse transcribed using MMLV reverse-transcriptase, 0.05 pg/μl oligo-(dT) primer (21 mer), 1× first strand buffer, 0.03 units/μl RNase inhibitor, 500 μM dATP, 500 μM dGTP, 500 μM dTTP, 40 μM dCTWP, 40 μM dCTP-Cy3 (BDS) or dCTP-Cy5 (Amersham Biosciences). The reverse transcription reaction is performed in a […] containing 200 ng poly(A)^+ RNA with GEMBRIGHT kits (Incyte Genomics). Specific control poly(A)^+ RNAs are synthesized by in vitro transcription from non-coding yeast genomic DNA. After incubation at 37° C. for 2 hr, each reaction sample (one with Cy3 and another with Cy5 labeling) is treated with […] of 0.5M sodium hydroxide and incubated for 20 minutes at 85° C. to the stop the reaction and degrade the RNA. Samples are purified using two successive CHROMA SPIN 30 gel filtration spin columns (Clontech, Palo Alto Calif.) and after combining, both reaction samples are ethanol precipitated using […] of 100% ethanol. The sample is then dried to completion using a SpeedVAC (Savant Instruments Inc., Holbrook N.Y.) and resuspended in 14 μl 5×SSC/0.2% SDS.
Sequences of the present invention are used to generate array elements. Each array element is amplified from bacterial cells containing vectors with cloned cDNA inserts. PCR amplification uses primers complementary to the vector sequences flanking the cDNA insert. Array elements are amplified in thirty cycles of PCR from an initial quantity of 1-2 ng to a final quantity greater than 5 μg. Amplified array elements are then purified using SEPHACRYL-400 (Amersham Biosciences).
Purified array elements are immobilized on polymer-coated glass slides. Glass microscope slides (Corning) are cleaned by ultrasound in 0.1% SDS and acetone, with extensive distilled water washes between and after treatments. […]

Structure (SMILES) | expression of SEQ ID NO:67
C[C@H]1C[C@H]2[C@@H]3CCC4=CC(=O)C=C[C@]4(C)[C@@]3(F)[C@@H](O)C[C@]2(C)[C@@]1(O)C(=O)CO [betamethasone] | at least a two-fold decrease
CCCC1O[C@@H]2C[C@H]3[C@@H]4CCC5=CC(=O)C=C[C@]5(C)[C@H]4[C@@H](O)C[C@]3(C)[C@]2(C(=O)CO)O1 (stereo partly drawn) [budesonide] | at least a two-fold decrease
C[C@@H]1C[C@H]2[C@@H]3CCC4=CC(=O)C=C[C@]4(C)[C@@]3(F)[C@@H](O)C[C@]2(C)[C@@]1(O)C(=O)CO [dexamethasone] | at least a two-fold decrease
